In doi:10.1101/268466 one finds binding data, which are given here for one molecule.

For this assay, the target named is YC-TON1 (TONNEAU1 fused to the C-terminal half of YFP). Description: split reporter.

Results are given in words; binding and its absence hold for the method and conditions named. Binding seen in cells or lysates may run through a third protein. A result given as binding can be weak or reduced; the word gives no strength. Tags and fused reporters may be left off the sequences shown.

B1: YN-TRM1 (TON1 RECRUITMENT MOTIF1 fused to the N-terminal half of YFP) (protein, UniProt Q9S823 1-905)
chain: MSAKLLYNLSDENPNLNKQFGCMNGIFQVFYRQHCPATPVTVSGGAEKSLPPGERRGSVGETNMESDKETERSSTKKKKSAAKEKHRVSFESSSRPSFSSSPRSSSFSSAEVSTTASQFDQPGENLIREQPNGGLMMPYDLKELVKGSINREIRTRGEEASFTQQQQPISARSSMLLLKESSLRSPCRSSNEWNEGRGAAMKFKESHRLSYDEREMRNNGFRVGSKLKETPRLSLDSRSNSFRSPRADAARSSCPEEPATMTHRRSSSSVVAKLMGLEVIADNSDTEQRRENRFCDSPRPMSRVEPTALQRSRSVDSIKRIPASAASKFPMEPAPWKQMKAGDSALTVYGEIQKRLTQLEFKKSGKDLRALKQILEAMEKTQQLIDESRDDGTLSTTTLMQRTHKPVSAATSPARNFKSSSIVVMKSAAPVSTSPLPQNVTLPNVKVGNSRQTRKVTSGKQNAMDLTPRPGLYKGQLDSTKSNSPKTVRSRQALAADAGSMTKSGRSQQHSVSPRTQPKKLGFEKQTRPTTPKSEPGKRQLGRQQTEVASPRRKQMIKPHSTLQQPDDRLSDARSDLRSLRSDSNISLGSNVDIEVTSRHRLERNCDFPEQHTPKQRSPDFGIKQDRPSLKPLKVTVEQPSPVSVLDAVFDEEDSPSPVRKISLSFKEEDALRSEESEWINKPTSFCRSVPFPQSNRGPMKPSSDHFECSPEEGADFKSGNHKYILEILLASGILRDLEYSMISFQLHQTRLPINPGLFFILEQNKASNVTLPDNKHRGRGFRQQQTNPTETIRRKLVFDTVNEILARKFTAEGCIKPRLIANPLKKLEKISKEEQLLQTLCSEIDRLQQNNSNCILEDDEEDIIWEDLQSQSMNLKEFEGETPGIVLDIERMIFRDLVNEVCFC
As for B1, the binding entry was “binds”.
